# Measurements published in the supplement of paper PMC8728848.
# The other results are listed elsewhere or left out.
# B1: BSR4 (Toxoplasma gondii), Q95NL6 (protein)
# chain: MVMMGSMQQRRGGLRSNARQLLAVCMSGVVFFSSGQAVADNLLEGLLHRTLQQQVEVTSRLTVAGSDAKCDFFTPATQDSPPVSGSLTLSKGRMTATFECSATQALSISTIPTNIEQNVCDPKKTTNGTVCQFGANGSAGTEVTLKDLLETDRIVNWKVNEQREESNKSQKWSLELHNEDLPLTDKAFVVGCQATSAARGTESGKTAACKLTVNVEARASSLAENNVVTCAYGKGSNPNPVEVEMSTEKNTLTINCGSDGSLQPTTYAEEYCVADSKDVNRCSTTRFVEIFPKFLKSWWVTETQKRTSATLTIPQTDLPEADQQFLVGCVPKKTAPEDPKKDKESGTETGAPTSCTVLVTVKAASSASHASPTVQILAAASSAAA
# Tests used:
# Experiment in all cases: glycan array binding signal (z-score within array); higher = stronger binding
# Details in all cases: glycan notation: IUPAC condensed, linker removed
# [1] = molecular target: GlcNAc(b1-4)GlcNAc
# Procedure, shortened: (§1)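 The binding signal is a Z-score computed within each array. Data were drawn from 3228 arrays in the Consortium for Functional Glycomics database, restricted to those with a known protein sequence. Scores were averaged over arrays of the same protein sequence at different concentrations or buffers, and over linkers, and negative values can be taken as non-binding.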
# [2] = molecular target: GlcNAc(b1-4)GlcNAc(b1-4)GlcNAc
# Procedure, shortened: as §1
# [3] = molecular target: GlcNAc(b1-4)GlcNAc(b1-4)GlcNAc(b1-4)GlcNAc(b1-4)GlcNAc
# Procedure, shortened: as §1
# [4] = molecular target: GlcNAc(b1-4)GlcNAc(b1-4)GlcNAc(b1-4)GlcNAc(b1-4)GlcNAc(b1-4)GlcNAc
# Procedure, shortened: as §1
# [5] = molecular target: GlcNAc(b1-4)[GlcNAc(b1-6)]GalNAc
# Procedure, shortened: as §1
# [6] = molecular target: GlcNAc(b1-6)Gal(b1-4)GlcNAc
# Procedure, shortened: as §1
# [7] = molecular target: GlcNAc(b1-6)GalNAc
# Procedure, shortened: as §1
# [8] = molecular target: GlcNAc3Prop(b1-4)GlcNAc
# Procedure, shortened: as §1
# [9] = molecular target: GlcNAc6S(b1-3)Gal(b1-4)GlcNAc
# Procedure, shortened: as §1
# [10] = molecular target: Kdn(a2-3)Gal(b1-3)GalNAc
# Procedure, shortened: as §1
# [11] = molecular target: Kdn(a2-3)Gal(b1-3)GlcNAc
# Procedure, shortened: as §1
# [12] = molecular target: Kdn(a2-3)Gal(b1-4)Glc
# Procedure, shortened: as §1
# [13] = molecular target: Kdn(a2-3)Gal(b1-4)GlcNAc
# Procedure, shortened: as §1
# [14] = molecular target: Kdn(a2-3)Gal(b1-4)[Fuc(a1-3)]GlcNAc
# Procedure, shortened: as §1
# [15] = molecular target: Kdn(a2-6)Gal(b1-4)GlcNAc
# Procedure, shortened: as §1
# [16] = molecular target: Man(a1-2)Man(a1-2)Man(a1-3)Man
# Procedure, shortened: as §1
# [17] = molecular target: Man(a1-2)Man(a1-2)Man(a1-6)[Man(a1-3)]Man
# Procedure, shortened: as §1
# [18] = molecular target: Man(a1-2)Man(a1-3)Man
# Procedure, shortened: as §1
# [19] = molecular target: Man(a1-2)Man(a1-3)[Man(a1-2)Man(a1-6)]Man
# Procedure, shortened: as §1
# [20] = molecular target: Man(a1-2)Man(a1-3)[Man(a1-2)Man(a1-6)]Man(a1-6)[Man(a1-2)Man(a1-2)Man(a1-3)]Man
# Procedure, shortened: as §1
# [21] = molecular target: Man(a1-2)Man(a1-3)[Man(a1-2)Man(a1-6)]Man(a1-6)[Man(a1-2)Man(a1-2)Man(a1-3)]Man(b1-4)GlcNAc(b1-4)GlcNAc
# Procedure, shortened: as §1
# [22] = molecular target: Man(a1-2)Man(a1-3)[Man(a1-6)]Man(a1-6)[Man(a1-2)Man(a1-3)]Man(b1-4)GlcNAc(b1-4)GlcNAc
# Procedure, shortened: as §1
# [23] = molecular target: Man(a1-2)Man(a1-6)[Man(a1-3)]Man(a1-6)[Man(a1-2)Man(a1-2)Man(a1-3)]Man
# Procedure, shortened: as §1
# [24] = molecular target: Man(a1-2)Man(a1-6)[Man(a1-3)]Man(a1-6)[Man(a1-2)Man(a1-2)Man(a1-3)]Man(b1-4)GlcNAc(b1-4)GlcNAc
# Procedure, shortened: as §1
# [25] = molecular target: Man(a1-3)[Man(a1-6)]Man
# Procedure, shortened: as §1
# [26] = molecular target: Man(a1-3)[Man(a1-6)]Man(a1-6)[Man(a1-2)Man(a1-3)]Man(b1-4)GlcNAc(b1-4)GlcNAc
# Procedure, shortened: as §1
# [27] = molecular target: Man(a1-3)[Man(a1-6)]Man(a1-6)[Man(a1-3)]Man
# Procedure, shortened: as §1
# [28] = molecular target: Man(a1-3)[Man(a1-6)]Man(a1-6)[Man(a1-3)]Man(b1-4)GlcNAc(b1-4)GlcNAc
# Procedure, shortened: as §1
# [29] = molecular target: Man(a1-3)[Man(a1-6)]Man(b1-4)GlcNAc(b1-4)GlcNAc
# Procedure, shortened: as §1
# [30] = molecular target: Man(a1-6)Man
# Procedure, shortened: as §1
# [31] = molecular target: Man(b1-4)GlcNAc
# Procedure, shortened: as §1
# [32] = molecular target: Neu5Ac(a2-3)Gal
# Procedure, shortened: as §1
# [33] = molecular target: Neu5Ac(a2-3)Gal(b1-3)GalNAc
# Procedure, shortened: as §1
# [34] = molecular target: Neu5Ac(a2-3)Gal(b1-3)GalNAc(b1-3)Gal(a1-4)Gal(b1-4)Glc
# Procedure, shortened: as §1
# [35] = molecular target: Neu5Ac(a2-3)Gal(b1-3)GalNAc(b1-4)[Neu5Ac(a2-3)]Gal(b1-4)Glc
# Procedure, shortened: as §1
# [36] = molecular target: Neu5Ac(a2-3)Gal(b1-3)GalNAc6S
# Procedure, shortened: as §1
# [37] = molecular target: Neu5Ac(a2-3)Gal(b1-3)GlcNAc
# Procedure, shortened: as §1
# [38] = molecular target: Neu5Ac(a2-3)Gal(b1-3)GlcNAc(b1-2)Man(a1-3)[Neu5Ac(a2-3)Gal(b1-3)GlcNAc(b1-2)Man(a1-6)]Man(b1-4)GlcNAc(b1-4)GlcNAc
# Procedure, shortened: as §1
binder,measurement,setting,value
B1,glycan array binding signal (z-score),[1],0.141
same,glycan array binding signal (z-score),[2],-0.561
same,glycan array binding signal (z-score),[3],-0.443
same,glycan array binding signal (z-score),[4],0.269
same,glycan array binding signal (z-score),[5],0.129
same,glycan array binding signal (z-score),[6],-0.652
same,glycan array binding signal (z-score),[7],-0.264
same,glycan array binding signal (z-score),[8],-0.719
same,glycan array binding signal (z-score),[9],0.064
same,glycan array binding signal (z-score),[10],-0.111
same,glycan array binding signal (z-score),[11],1.32
same,glycan array binding signal (z-score),[12],0.397
same,glycan array binding signal (z-score),[13],0.831
same,glycan array binding signal (z-score),[14],0.006
same,glycan array binding signal (z-score),[15],-0.315
same,glycan array binding signal (z-score),[16],0.205
same,glycan array binding signal (z-score),[17],0.245
same,glycan array binding signal (z-score),[18],0.738
same,glycan array binding signal (z-score),[19],0.519
same,glycan array binding signal (z-score),[20],-0.451
same,glycan array binding signal (z-score),[21],-0.311
same,glycan array binding signal (z-score),[22],-0.237
same,glycan array binding signal (z-score),[23],-0.324
same,glycan array binding signal (z-score),[24],-0.294
same,glycan array binding signal (z-score),[25],0.118
same,glycan array binding signal (z-score),[26],1.03
same,glycan array binding signal (z-score),[27],-0.559
same,glycan array binding signal (z-score),[28],-0.42
same,glycan array binding signal (z-score),[29],0.597
same,glycan array binding signal (z-score),[30],-0.56
same,glycan array binding signal (z-score),[31],0.505
same,glycan array binding signal (z-score),[32],0.444
same,glycan array binding signal (z-score),[33],-0.071
same,glycan array binding signal (z-score),[34],-0.643
same,glycan array binding signal (z-score),[35],0.324
same,glycan array binding signal (z-score),[36],-0.333
same,glycan array binding signal (z-score),[37],-0.76
same,glycan array binding signal (z-score),[38],-0.633

# Shown with tabs: entries from further up.
binder	measurement	setting	value
B1	glycan array binding signal (z-score)	[5]	0.129
same	glycan array binding signal (z-score)	[6]	-0.652
same	glycan array binding signal (z-score)	[7]	-0.264
same	glycan array binding signal (z-score)	[8]	-0.719
same	glycan array binding signal (z-score)	[9]	0.064
same	glycan array binding signal (z-score)	[10]	-0.111
same	glycan array binding signal (z-score)	[11]	1.32
